No constants are given. Whether binding was seen depends on the method and setting. Binding seen in cells or lysates may run through a third protein. Some entries that bind do so weakly or less than the wild type. Tags and fused reporters may be left off the sequences shown.
B1: SMCR8 (protein, UniProt Q8TEV9 1-937)
chain: MISAPDVVAFTKEEEYEEEPYNEPALPEEYSVPLFPFASQGANPWSKLSGAKFSRDFILISEFSEQVGPQPLLTIPNDTKVFGTFDLNYFSLRIMSVDYQASFVGHPPGSAYPKLNFVEDSKVVLGDSKEGAFAYVHHLTLYDLEARGFVRPFCMAYISADQHKIMQQFQELSAEFSRASECLKTGNRKAFAGELEKKLKDLDYTRTVLHTETEIQKKANDKGFYSSQAIEKANELASVEKSIIEHQDLLKQIRSYPHRKLKGHDLCPGEMEHIQDQASQASTTSNPDESADTDLYTCRPAYTPKLIKAKSTKCFDKKLKTLEELCDTEYFTQTLAQLSHIEHMFRGDLCYLLTSQIDRALLKQQHITNFLFEDFVEVDDRMVEKQESIPSKPSQDRPPSSSLEECPIPKVLISVGSYKSSVESVLIKMEQELGDEEYKEVEVTELSSFDPQENLDYLDMDMKGSISSGESIEVLGTEKSTSVLSKSDSQASLTVPLSPQVVRSKAVSHRTISEDSIEVLSTCPSEALIPDDFKASYPSAINEEESYPDGNEGAIRFQASISPPELGETEEGSIENTPSQIDSSCCIGKESDGQLVLPSTPAHTHSDEDGVVSSPPQRHRQKDQGFRVDFSVENANPSSRDNSCEGFPAYELDPSHLLASRDISKTSLDNYSDTTSYVSSVASTSSDRIPSAYPAGLSSDRHKKRAGQNALKFIRQYPFAHPAIYSLLSGRTLVVLGEDEAIVRKLVTALAIFVPSYGCYAKPVKHWASSPLHIMDFQKWKLIGLQRVASPAGAGTLHALSRYSRYTSILDLDNKTLRCPLYRGTLVPRLADHRTQIKRGSTYYLHVQSMLTQLCSKAFLYTFCHHLHLPTHDKETEELVASRQMSFLKLTLGLVNEDVRVVQYLAELLKLHYMQESPGTSHPMLRFDYVPSFLYKI
B2: WDR41, Q9HAD4 1-459 (protein)
chain: MLRWLIGGGREPQGLAEKSPLQTIGEEQTQNPYTELLVLKAHHDIVRFLVQLDDYRFASAGDDGIVVVWNAQTGEKLLELNGHTQKITAIITFPSLESCEEKNQLILTASADRTVIVWDGDTTRQVQRISCFQSTVKCLTVLQRLDVWLSGGNDLCVWNRKLDLLCKTSHLSDTGISALVEIPKNCVVAAVGKELIIFRLVAPTEGSLEWDILEVKRLLDHQDNILSLINVNDLSFVTGSHVGELIIWDALDWTMQAYERNFWDPSPQLDTQQEIKLCQKSNDISIHHFTCDEENVFAAVGRGLYVYSLQMKRVIACQKTAHDSNVLHVARLPNRQLISCSEDGSVRIWELREKQQLAAEPVPTGFFNMWGFGRVSKQASQPVKKQQENATSCSLELIGDLIGHSSSVEMFLYFEDHGLVTCSADHLIILWKNGERESGLRSLRLFQKLEENGDLYLAV

What was measured:
[1] = target: T1, EGFP-C9ORF72 fusion protein (human (endogenous in hiPSC-MG)) (UniProt Q96LT7); test: co-IP; GFP-Trap immunoprecipitation from EGFP-C9ORF72 hiPSC-MG lysate, Western blotting (fig. S6D)
T1 sequence: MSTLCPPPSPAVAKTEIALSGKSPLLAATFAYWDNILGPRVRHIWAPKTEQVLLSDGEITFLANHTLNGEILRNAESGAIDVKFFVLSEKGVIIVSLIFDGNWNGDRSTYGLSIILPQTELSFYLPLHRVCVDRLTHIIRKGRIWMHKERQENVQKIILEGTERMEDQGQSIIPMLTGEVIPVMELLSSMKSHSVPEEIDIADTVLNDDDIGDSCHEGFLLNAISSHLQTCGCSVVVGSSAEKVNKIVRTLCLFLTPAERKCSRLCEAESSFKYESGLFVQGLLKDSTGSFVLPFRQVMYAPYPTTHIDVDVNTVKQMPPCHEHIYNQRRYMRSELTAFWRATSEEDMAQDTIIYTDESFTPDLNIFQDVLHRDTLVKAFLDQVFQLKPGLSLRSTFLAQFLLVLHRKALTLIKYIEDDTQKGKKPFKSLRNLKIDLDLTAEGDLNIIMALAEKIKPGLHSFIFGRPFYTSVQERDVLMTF

[2] = target: T2, EGFP-C9ORF72 fusion protein (human (endogenous in hiPSC-MG)), Q96LT7; test: as above; conditions: remark: other sources report otherwise
T2 chain: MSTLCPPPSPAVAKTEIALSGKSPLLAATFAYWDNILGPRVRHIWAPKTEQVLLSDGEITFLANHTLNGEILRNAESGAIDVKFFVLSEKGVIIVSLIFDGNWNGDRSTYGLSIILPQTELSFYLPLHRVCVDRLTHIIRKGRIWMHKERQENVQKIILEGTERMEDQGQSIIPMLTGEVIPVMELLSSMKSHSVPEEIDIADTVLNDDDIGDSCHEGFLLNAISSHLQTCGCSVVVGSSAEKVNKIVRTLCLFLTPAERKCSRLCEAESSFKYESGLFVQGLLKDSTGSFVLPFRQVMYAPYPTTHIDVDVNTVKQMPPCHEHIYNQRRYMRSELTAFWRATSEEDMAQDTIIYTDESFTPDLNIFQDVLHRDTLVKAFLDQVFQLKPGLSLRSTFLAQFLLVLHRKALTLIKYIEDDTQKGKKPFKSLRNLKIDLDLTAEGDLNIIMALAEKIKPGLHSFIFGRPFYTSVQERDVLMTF

Binder | binding [1] | binding [2]
B1 | binds | 
B2 |  | binds

— publication PMC10121169
